Laboratory results: PubChem BioAssay AID1259308 (NCATS, 2017)

- Test: 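Genes whose loss raises luciferase production in HEK293 cells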 (primary screen)
- Cells: human HEK293 embryonic kidney cells stably expressing firefly luciferase (HEK-CMV-Luc2-Hygro)
- Reagent: single siRNA against human genes, 0.8 pmol siRNA per well
- Time to read-out: 72 h
- Measured: 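Luciferase light (ONE-Glo) measured on one replicate plate set and viability (CellTiter-Glo) on the other, scaled to a negative control siRNA, with robust z-scores and luciferase per cell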
- Reading the numbers: total luciferase, z-score and total luciferase, % of control: higher = more reporter protein produced
- Rule for the call: 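Active when the median/MAD z-score for overall luciferase is greater than 3; a gene was taken forward for validation with new siRNAs if at least two of its three siRNAs passed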
- Calls: active = raised luciferase; inactive = no rise
The deposit covers about 59,000 reagents; this is a part drawn at random. Over the whole deposit, about 1,510 (2.6%) are marked active. 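Calls use total luciferase alone and ignore viability, so some active siRNAs may act by altering cell number.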 Unmarked entries are inactive. Reagents against one gene are numbered here. Not all columns of the deposit are shown.

SPTLC1 #1
- total luciferase, z-score: 0.676
- total luciferase, % of control: 95.3

SPTLC1 #2
- total luciferase, z-score: 0.715
- total luciferase, % of control: 96.1

SPTLC1 #3
- total luciferase, z-score: 1.29
- total luciferase, % of control: 108

PRR23E #1
- total luciferase, z-score: 0.556
- total luciferase, % of control: 92.9

PRR23E #2
- total luciferase, z-score: -0.498
- total luciferase, % of control: 72

PRR23E #3
- total luciferase, z-score: 0.161
- total luciferase, % of control: 85.1

CCDC197 #1
- total luciferase, z-score: 1.59
- total luciferase, % of control: 113

CCDC197 #2
- total luciferase, z-score: -0.301
- total luciferase, % of control: 75.9

CCDC197 #3
- total luciferase, z-score: -0.518
- total luciferase, % of control: 71.6

SYNC #1
- total luciferase, z-score: -1.61
- total luciferase, % of control: 49.9

SYNC #2
- total luciferase, z-score: -0.241
- total luciferase, % of control: 77.1

SYNC #3
- total luciferase, z-score: 0.367
- total luciferase, % of control: 89.2

NRTN #1
- total luciferase, z-score: 0.467
- total luciferase, % of control: 91.2

NRTN #2
- total luciferase, z-score: -0.242
- total luciferase, % of control: 77.1

NRTN #3
- total luciferase, z-score: 0.0693
- total luciferase, % of control: 83.3

TMEM267 #1
- total luciferase, z-score: -0.0253
- total luciferase, % of control: 81.4

TMEM267 #2
- total luciferase, z-score: 2.23
- total luciferase, % of control: 126

TMEM267 #3
- total luciferase, z-score: -0.0533
- total luciferase, % of control: 80.8

GRK5 #1
- total luciferase, z-score: 0.735
- total luciferase, % of control: 96.5

GRK5 #2
- total luciferase, z-score: 2.69
- total luciferase, % of control: 135

GRK5 #3
- total luciferase, z-score: -1.45
- total luciferase, % of control: 53.1

FOXE1 #1
- total luciferase, z-score: -1.74
- total luciferase, % of control: 47.3

FOXE1 #2
- total luciferase, z-score: -0.0523
- total luciferase, % of control: 80.8

FOXE1 #3
- total luciferase, z-score: 0.25
- total luciferase, % of control: 86.9

RAG1 #1
- total luciferase, z-score: -0.905
- total luciferase, % of control: 63.9

RAG1 #2
- total luciferase, z-score: 1.12
- total luciferase, % of control: 104

RAG1 #3
- total luciferase, z-score: -0.663
- total luciferase, % of control: 68.7

FABP5 #1
- total luciferase, z-score: -0.387
- total luciferase, % of control: 74.2

FABP5 #2
- total luciferase, z-score: 2.03
- total luciferase, % of control: 122

FABP5 #3
- total luciferase, z-score: -0.234
- total luciferase, % of control: 77.2

RCHY1 #1
- total luciferase, z-score: -1.02
- total luciferase, % of control: 61.6

RCHY1 #2
- total luciferase, z-score: 2.18
- total luciferase, % of control: 125

RCHY1 #3
- total luciferase, z-score: -0.141
- total luciferase, % of control: 79.1

Part of the list above, showing only “total luciferase, z-score”:
CCDC197 #2: -0.301
CCDC197 #3: -0.518
SYNC #1: -1.61
SYNC #2: -0.241
SYNC #3: 0.367
